# Test results: PMC3899338
# Amino acid sequences for entries named in this document (tags omitted).
# UniProt P08238: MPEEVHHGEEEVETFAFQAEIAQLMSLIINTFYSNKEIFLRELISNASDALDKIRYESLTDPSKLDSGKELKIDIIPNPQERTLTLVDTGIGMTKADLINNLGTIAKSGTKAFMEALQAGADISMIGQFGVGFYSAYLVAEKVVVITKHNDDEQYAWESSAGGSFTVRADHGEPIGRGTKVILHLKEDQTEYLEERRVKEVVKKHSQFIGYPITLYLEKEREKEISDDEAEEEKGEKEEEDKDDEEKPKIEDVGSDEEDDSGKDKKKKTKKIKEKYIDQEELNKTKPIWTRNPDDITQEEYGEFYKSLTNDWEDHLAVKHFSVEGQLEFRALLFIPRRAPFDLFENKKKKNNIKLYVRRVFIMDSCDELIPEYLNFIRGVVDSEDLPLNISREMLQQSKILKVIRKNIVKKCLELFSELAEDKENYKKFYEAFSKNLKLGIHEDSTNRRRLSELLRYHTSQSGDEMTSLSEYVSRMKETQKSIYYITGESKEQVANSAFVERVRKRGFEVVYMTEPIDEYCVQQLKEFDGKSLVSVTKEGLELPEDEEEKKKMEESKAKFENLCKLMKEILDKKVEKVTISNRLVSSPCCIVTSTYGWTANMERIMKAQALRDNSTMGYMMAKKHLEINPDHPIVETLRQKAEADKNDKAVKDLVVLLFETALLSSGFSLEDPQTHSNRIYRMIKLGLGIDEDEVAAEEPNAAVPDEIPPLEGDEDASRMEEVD
# Results are given in words; binding and its absence hold for the method and conditions named. Binding seen in cells or lysates may run through a third protein.
# Molecular target: BSA (UniProt P02769)
# Assay: pull-down; control immunoprecipitation: BSA covalently coupled to Dynabeads, incubated with DTSSP cross-linked MDA-MB-231 lysate; immunoblot for Hsp90α/β; only the target purified
row,Substance,binding
1,"Hsp90α, endogenous in MDA-MB-231 cells (from UniProt P07900 1-732)",no binding
2,"Hsp90β, endogenous in MDA-MB-231 cells (from UniProt P08238 1-724)",no binding
